# PubChem BioAssay (EPA / NIEHS)
# Protein sequences, listed by entry. Tags and fused reporters are not part of them. Lines headed by an entry give the natural chain unless they say otherwise; changes in a name come on top.
# UniProt P03372, whole entry, looked up: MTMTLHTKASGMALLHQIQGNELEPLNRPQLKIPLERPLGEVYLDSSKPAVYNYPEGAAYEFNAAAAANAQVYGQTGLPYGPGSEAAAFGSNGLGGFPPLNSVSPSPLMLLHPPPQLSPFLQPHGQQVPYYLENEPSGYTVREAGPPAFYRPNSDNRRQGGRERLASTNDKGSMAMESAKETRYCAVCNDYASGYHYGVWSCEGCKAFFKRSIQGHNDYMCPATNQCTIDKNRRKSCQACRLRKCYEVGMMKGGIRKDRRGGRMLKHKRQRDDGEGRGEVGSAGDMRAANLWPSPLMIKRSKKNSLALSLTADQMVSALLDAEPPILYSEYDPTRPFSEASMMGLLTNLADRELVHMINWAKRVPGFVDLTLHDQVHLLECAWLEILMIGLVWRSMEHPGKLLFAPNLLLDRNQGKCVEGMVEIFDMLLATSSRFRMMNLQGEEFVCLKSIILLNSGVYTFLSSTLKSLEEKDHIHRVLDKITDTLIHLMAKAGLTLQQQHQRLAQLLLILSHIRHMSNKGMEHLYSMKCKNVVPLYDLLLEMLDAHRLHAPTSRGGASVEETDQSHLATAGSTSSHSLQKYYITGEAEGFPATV
# UniProt Q92731, whole entry, looked up: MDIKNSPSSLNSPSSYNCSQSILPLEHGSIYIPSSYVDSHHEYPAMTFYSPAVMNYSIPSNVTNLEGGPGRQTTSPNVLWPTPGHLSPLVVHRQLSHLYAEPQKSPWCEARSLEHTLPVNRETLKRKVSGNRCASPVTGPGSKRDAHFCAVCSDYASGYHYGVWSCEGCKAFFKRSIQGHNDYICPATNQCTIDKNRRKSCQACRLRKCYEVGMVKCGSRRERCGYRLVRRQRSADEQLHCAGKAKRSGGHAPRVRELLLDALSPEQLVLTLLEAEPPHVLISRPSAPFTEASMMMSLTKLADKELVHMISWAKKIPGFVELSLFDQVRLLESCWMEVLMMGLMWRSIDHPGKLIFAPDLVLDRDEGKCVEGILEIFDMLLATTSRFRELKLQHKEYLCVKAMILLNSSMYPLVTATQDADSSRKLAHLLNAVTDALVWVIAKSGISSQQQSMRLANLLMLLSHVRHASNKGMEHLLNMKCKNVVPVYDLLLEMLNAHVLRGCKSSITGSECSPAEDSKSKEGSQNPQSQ
# UniProt Q96RI1: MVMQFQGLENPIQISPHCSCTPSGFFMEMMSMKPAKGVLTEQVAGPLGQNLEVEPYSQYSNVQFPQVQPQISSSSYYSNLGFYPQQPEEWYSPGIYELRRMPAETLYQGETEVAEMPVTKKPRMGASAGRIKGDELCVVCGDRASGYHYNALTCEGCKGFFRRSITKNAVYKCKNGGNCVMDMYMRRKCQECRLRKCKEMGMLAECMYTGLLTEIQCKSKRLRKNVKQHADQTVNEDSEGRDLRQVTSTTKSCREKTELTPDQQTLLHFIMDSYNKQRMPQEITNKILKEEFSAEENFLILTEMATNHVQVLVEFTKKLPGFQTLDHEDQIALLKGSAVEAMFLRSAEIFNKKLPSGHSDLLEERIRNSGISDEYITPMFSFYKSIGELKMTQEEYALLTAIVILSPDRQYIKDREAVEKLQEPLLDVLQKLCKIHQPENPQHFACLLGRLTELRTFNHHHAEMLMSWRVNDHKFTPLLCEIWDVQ
# UniProt P08684, whole entry, looked up: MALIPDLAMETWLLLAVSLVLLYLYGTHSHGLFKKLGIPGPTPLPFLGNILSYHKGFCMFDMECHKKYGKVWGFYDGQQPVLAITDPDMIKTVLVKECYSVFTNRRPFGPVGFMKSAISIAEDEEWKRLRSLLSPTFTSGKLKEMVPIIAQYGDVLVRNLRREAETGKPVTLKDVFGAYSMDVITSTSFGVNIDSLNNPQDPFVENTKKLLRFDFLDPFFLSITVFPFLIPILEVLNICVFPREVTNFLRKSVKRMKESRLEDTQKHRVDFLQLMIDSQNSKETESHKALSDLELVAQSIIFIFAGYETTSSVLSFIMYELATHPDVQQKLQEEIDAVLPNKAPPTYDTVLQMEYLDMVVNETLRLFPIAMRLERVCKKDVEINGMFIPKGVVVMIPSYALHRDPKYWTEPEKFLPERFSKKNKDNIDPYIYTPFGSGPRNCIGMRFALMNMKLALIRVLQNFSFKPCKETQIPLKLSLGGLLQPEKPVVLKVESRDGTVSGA
# UniProt P04406: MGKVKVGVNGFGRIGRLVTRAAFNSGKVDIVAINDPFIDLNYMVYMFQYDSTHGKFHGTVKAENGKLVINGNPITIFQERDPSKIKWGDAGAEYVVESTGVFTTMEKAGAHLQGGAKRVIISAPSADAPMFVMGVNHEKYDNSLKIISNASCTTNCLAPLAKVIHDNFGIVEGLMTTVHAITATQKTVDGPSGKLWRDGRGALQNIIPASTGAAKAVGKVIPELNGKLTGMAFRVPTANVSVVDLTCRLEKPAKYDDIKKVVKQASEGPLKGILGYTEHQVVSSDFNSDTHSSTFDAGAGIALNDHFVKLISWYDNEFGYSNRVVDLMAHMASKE
# UniProt P60484: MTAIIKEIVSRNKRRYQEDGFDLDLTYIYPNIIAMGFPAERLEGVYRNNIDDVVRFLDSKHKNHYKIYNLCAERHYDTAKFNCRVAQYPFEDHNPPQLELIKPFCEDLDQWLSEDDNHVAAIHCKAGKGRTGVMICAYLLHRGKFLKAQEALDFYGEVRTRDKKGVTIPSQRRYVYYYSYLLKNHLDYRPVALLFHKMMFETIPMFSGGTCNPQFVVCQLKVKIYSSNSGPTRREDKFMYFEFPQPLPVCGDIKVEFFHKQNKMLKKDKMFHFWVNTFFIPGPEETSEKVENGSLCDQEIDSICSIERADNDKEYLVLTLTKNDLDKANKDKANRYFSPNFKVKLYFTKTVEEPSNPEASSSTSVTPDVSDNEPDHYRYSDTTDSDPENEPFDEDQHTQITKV
# UniProt P10275: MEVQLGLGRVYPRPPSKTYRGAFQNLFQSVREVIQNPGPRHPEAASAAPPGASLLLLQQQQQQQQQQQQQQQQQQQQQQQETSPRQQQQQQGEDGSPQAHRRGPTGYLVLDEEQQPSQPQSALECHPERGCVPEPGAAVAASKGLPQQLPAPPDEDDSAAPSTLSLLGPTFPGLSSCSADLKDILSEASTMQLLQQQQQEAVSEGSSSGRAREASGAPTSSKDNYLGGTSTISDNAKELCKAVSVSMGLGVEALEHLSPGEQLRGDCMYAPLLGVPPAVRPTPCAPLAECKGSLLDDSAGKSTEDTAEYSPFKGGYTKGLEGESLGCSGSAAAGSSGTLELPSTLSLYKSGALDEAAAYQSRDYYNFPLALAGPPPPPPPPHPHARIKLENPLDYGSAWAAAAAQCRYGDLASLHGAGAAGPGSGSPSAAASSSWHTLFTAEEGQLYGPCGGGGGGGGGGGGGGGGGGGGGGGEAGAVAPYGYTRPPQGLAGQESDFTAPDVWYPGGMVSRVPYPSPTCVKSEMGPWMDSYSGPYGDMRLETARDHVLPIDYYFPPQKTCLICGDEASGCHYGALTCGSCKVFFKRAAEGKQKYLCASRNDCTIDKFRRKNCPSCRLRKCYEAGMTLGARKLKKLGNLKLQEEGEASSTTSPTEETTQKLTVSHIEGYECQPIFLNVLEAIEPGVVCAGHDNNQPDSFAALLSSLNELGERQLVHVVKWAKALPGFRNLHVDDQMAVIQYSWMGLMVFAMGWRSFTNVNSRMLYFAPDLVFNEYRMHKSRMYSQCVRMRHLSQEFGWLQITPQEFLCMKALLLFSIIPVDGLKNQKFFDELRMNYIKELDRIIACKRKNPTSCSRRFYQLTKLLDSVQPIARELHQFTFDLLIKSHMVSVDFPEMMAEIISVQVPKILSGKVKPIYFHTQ
# UniProt P19785, whole entry, looked up: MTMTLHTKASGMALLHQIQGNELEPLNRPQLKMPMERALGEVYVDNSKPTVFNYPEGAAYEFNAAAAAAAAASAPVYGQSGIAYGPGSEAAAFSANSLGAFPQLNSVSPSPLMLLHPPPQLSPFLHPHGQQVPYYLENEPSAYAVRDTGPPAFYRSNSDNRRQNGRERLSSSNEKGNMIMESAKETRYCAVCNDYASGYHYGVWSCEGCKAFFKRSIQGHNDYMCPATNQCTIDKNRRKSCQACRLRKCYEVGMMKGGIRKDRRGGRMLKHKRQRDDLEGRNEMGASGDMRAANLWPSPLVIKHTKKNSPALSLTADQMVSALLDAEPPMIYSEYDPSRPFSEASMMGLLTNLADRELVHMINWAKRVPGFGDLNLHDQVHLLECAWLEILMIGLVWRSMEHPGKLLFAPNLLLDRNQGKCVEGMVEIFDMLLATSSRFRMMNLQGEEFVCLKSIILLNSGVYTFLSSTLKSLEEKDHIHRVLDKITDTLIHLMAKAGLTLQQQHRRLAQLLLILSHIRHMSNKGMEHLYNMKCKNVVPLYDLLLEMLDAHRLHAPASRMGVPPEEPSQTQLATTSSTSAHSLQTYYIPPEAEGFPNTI
# This list was built around the results that the source calls inconclusive (neither active nor inactive); the mix of calls is not that of the screen. For some of these results: Potencies of inconclusive entries are doubtful fits and often do not repeat. The source made the active and inactive calls. How the source made its calls: active means hit-call score of the fitted dose curve at least 0.9, where 1 is the maximum; inconclusive means response in the unintended direction; inactive means score below 0.9.
# Key:
# [1] = target: Estrogen receptor (Homo sapiens) + Estrogen receptor beta (Homo sapiens) (UniProt P03372+Q92731); assay: OT_ER_ERaERb_0480: Odyssey Thera (OT) 8-hour HEK293T Protein-Complementation Assay for Estrogen Receptor-alpha/-beta Heterodimer (AID 2283352)
# Summary of the method: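 Compound added to HEK293T cells carrying split-reporter-tagged ER-alpha and ER-beta LBDs, incubated 8 hours, then imaged by laser scanning cytometer. Signal rise in nucleus, or nucleus and cytoplasm, over vehicle was fitted in the positive direction.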
# [2] = target: Bile acid receptor (Homo sapiens) (UniProt Q96RI1); assay: OT_FXR_FXRSRC1_0480: Odyssey Thera (OT) 8-hour HEK293T Protein-Complementation Assay for Farnesoid X receptor/SRC-1 Co-activator (AID 2283383)
# Summary of the method: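 Human kidney HEK293T cells carried FXR/SRC-1 fragment-complementation constructs. Compounds were added and incubated 8 h. Reporter reassembly upon receptor–co-activator interaction was then quantified by fluorescence, with curves fitted in the positive direction relative to DMSO.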
# [3] = target: Bile acid receptor (Homo sapiens) (UniProt Q96RI1); assay: OT_FXR_FXRSRC1_1440: Odyssey Thera (OT) 24-hour HEK293T Protein-Complementation Assay for Farnesoid X receptor/SRC-1 Co-activator (AID 2283384)
# Summary of the method: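 Compounds are applied to human kidney HEK293T cells expressing bait and prey fused to reporter protein fragments; after 24 h, reconstituted reporter fluorescence is measured. Activity is fitted as signal gain over DMSO.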
# [4] = Tanguay_ZF_120hpf_CIRC_legacy: (Legacy) Oregon State University Tanguay Lab 120 Hour Post-fertilization zebrafish Assay for Circulatory Malformation (AID 2283651)
# Summary of the method: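 Read-out: presence or absence of circulatory malformation at 120 hpf, scored by brightfield microscopy, fitted in the gain-of-signal direction against DMSO baseline. Wild-type 5D larvae were exposed from 6 hpf after enzymatic chorion removal.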
# [5] = read-out: xenobiotic metabolism (CYP2C9), CYP2C9 (gene 1559); assay: CLD_CYP2C9_6hr: CellzDirect (CLD) Gene Expression Assay for xenobiotic metabolism (CYP2C9) at 6 hours (AID 2283664)
# Summary of the method: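 Primary human hepatocytes dosed daily with test chemicals at multiple concentrations; harvested at 6 h. CYP2C9 mRNA induction measured by qNPA chemiluminescence. Gain of signal fitted against 0.2% DMSO vehicle; cytotoxicity annotated from phase-contrast morphology.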
# [6] = read-out: sulfotransferase (SULT2A), SULT2A1 (gene 6822); assay: CLD_SULT2A_6hr: CellzDirect (CLD) Gene Expression Assay for sulfotransferase (SULT2A) at 6 hours (AID 2283669);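 further: hits raise transcript level above the DMSO vehicle baseline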
# Summary of the method: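 Primary human hepatocytes from two donor preparations were dosed daily with chemicals or 0.2% DMSO and harvested at 6 h. Transcript induction read by qNPA chemiluminescence, fitted for gain of signal relative to DMSO; morphology-based cytotoxicity annotated.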
# [7] = read-out: HMG-CoA synthase (HMGCS2), HMGCS2 (gene 3158); assay: CLD_HMGCS2_6hr: CellzDirect (CLD) Gene Expression Assay for HMG-CoA synthase (HMGCS2) at 6 hours (AID 2283682);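 further: actives raise HMGCS2 transcript above the 0.2% DMSO vehicle baseline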
# Summary of the method: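 Primary human hepatocytes dosed daily with fresh chemical, 0.2% DMSO vehicle; HMGCS2 mRNA measured at 6 h by qNPA chemiluminescence. Gain of signal fitted against DMSO; cytotoxicity flagged from phase-contrast morphology.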
# [8] = read-out: organic anion transporter (SLCO1B1), SLCO1B1 (gene 10599); assay: CLD_SLCO1B1_24hr: CellzDirect (CLD) Gene Expression Assay for organic anion transporter (SLCO1B1) at 24 hours (AID 2283690)
# Summary of the method: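 Primary human hepatocytes (two donor preparations) dosed daily for two days with chemicals at multiple concentrations, 0.2% DMSO vehicle. SLCO1B1 mRNA at 24 h measured by qNPA chemiluminescence; induction fitted relative to DMSO.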
# [9] = read-out: Cytochrome P450 3A4 (Homo sapiens) (UniProt P08684); assay: CLD_CYP3A4_48hr: CellzDirect (CLD) Gene Expression Assay for xenobiotic metabolism (CYP3A4) at 48 hours (AID 2283698)
# Summary of the method: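 Primary human hepatocytes from two donor preparations dosed daily for two days with multiple chemical concentrations, 0.2% DMSO vehicle. CYP3A4 mRNA at 48 h by quantitative nuclease protection assay, chemiluminescence, positive fit versus DMSO; cytotoxicity flagged morphologically.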
# [10] = Tanguay_ZF_120hpf_NC_legacy: (Legacy) Oregon State University Tanguay Lab 120 Hour Post-fertilization zebrafish Assay for Notochord and Tail Malformation (AID 2283656)
# Summary of the method: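 Dechorionated Tropical 5D wild-type zebrafish embryos, one per well from 6 hpf, statically exposed to 120 hpf at 28C in 0.64% DMSO final. Notochord distortion scored present/absent by brightfield; dead embryos excluded.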
# [11] = read-out: xenobiotic metabolism (CYP1A2), CYP1A2 (gene 1544); assay: CLD_CYP1A2_6hr: CellzDirect (CLD) Gene Expression Assay for xenobiotic metabolism (CYP1A2) at 6 hours (AID 2283663);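 on AC50: potency is for induction meaning a rise in mRNA above DMSO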
# Summary of the method: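 Primary human hepatocytes from two donor preparations, dosed daily with multiple concentrations in 0.2% DMSO and harvested at 6 h. CYP1A2 mRNA induction measured by chemiluminescent qNPA, gain of signal fitted against DMSO; cytotoxicity flagged morphologically.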
# [12] = read-out: Glyceraldehyde-3-phosphate dehydrogenase (Homo sapiens) (UniProt P04406); assay: CLD_GAPDH_6hr: CellzDirect (CLD) Gene Expression Assay for Baseline Control (Glyceraldehyde 3-phosphate dehydrogenase) at 6 hours (AID 2283681);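 on outcome: active means increased signal relative to DMSO vehicle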
# Summary of the method: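 Primary human hepatocytes from two donor preparations, dosed at multiple concentrations with 0.2% DMSO vehicle; GAPDH mRNA measured 6 h after dosing by chemiluminescent quantitative nuclease protection assay (qNPA) on denatured lysates. Serves as background control; cytotoxicity annotated by morphology.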
# [13] = read-out: sulfotransferase (SULT2A), SULT2A1 (gene 6822); assay: CLD_SULT2A_48hr: CellzDirect (CLD) Gene Expression Assay for sulfotransferase (SULT2A) at 48 hours (AID 2283710);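 further: hits raise SULT2A1 transcript above the 0.2% DMSO vehicle baseline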
# Summary of the method: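 Primary human hepatocytes (two donor preparations) dosed daily for two days with chemicals at multiple concentrations, vehicle 0.2% DMSO; SULT2A1 mRNA induction at 48 h by quantitative nuclease protection assay, chemiluminescent read-out, fitted for gain of signal versus DMSO.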
# [14] = ACEA_AR_agonist_AUC_viability: ACEA Biosciences xCELLigence Real-Time Cell Analysis on Androgen Receptor Agonism for Viability (AID 2283775);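 on AC50: viability read 80 hours after compound addition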
# Summary of the method: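 Real-time impedance tracking of 22Rv1 growth, readings every 5 min for 5 h then hourly; area-under-curve viability endpoint at 80 hours, relative to DMSO. Compounds at eight concentrations, 1:4 steps, top 100 uM, n = 2.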
# [15] = read-out: ABC Transporter (ABCB1), ABCB1 (gene 5243); assay: CLD_ABCB1_6hr: CellzDirect (CLD) Gene Expression Assay for ABC Transporter (ABCB1) at 6 hours (AID 2283659)
# Summary of the method: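 Primary human hepatocytes (two donor preparations) dosed daily for two days with chemicals at multiple concentrations, 0.2% DMSO vehicle; harvested 6 h post-dose. ABCB1 mRNA induction quantified by qNPA chemiluminescence; gain-of-signal fitted versus DMSO.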
# [16] = target: human Phosphatase and Tensin Homolog (PTEN), PTEN (gene 5728) (UniProt P60484); assay: NVS_ENZ_hPTEN: NovaScreen (NVS) Enzymatic Assay for human Phosphatase and Tensin Homolog (PTEN) (AID 2283203)
# Summary of the method: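 Cell-free recombinant human PTEN with fluorescent substrate; product separated by electrophoretic mobility shift and read by fluorescence 1 h after dosing. Primary screen in duplicate at 25 uM, actives followed in concentration series versus DMSO.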
# [17] = STM_H9_OrnCyssISnorm_ratio: Stemina devTOX quickPredict H9 human embryonic stem cell (hESC)-based Assay for Ornithine (ORN):Cystine (CYSS) Ratio (AID 2283714)
# Summary of the method: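 Undifferentiated H9 hESCs exposed 72 h, media and compound replaced every 24 h; final 24-h conditioned media deproteinized and analysed by UPLC-HRMS against C13 spike-ins. Value is the internal-standard-normalized ORN/CYSS ratio versus 0.1% DMSO.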
# [18] = target: Ratio of Nucleoli Translocation and Cytoplasm, AR (gene 367) (UniProt P10275); assay: UPITT_HCI_U2OS_AR_TIF2_Nucleoli_Cytoplasm_Ratio_Antagonist: University of Pittsburgh U2OS Androgen Receptor-Transcriptional Intermediary Factor 2 (AR-TIF2) Antagonism High Content Imaging Assay for Ratio of Nucleoli Translocation and Cytoplasm (AID 2283999);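 further: antagonists lower the DHT-driven ratio of nucleolar to cytoplasmic red signal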
# Summary of the method: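 Human osteosarcoma U2OS line, AR fused to RFP, coactivator TIF2 fused to GFP. Cpds 20 uM final, 0.2% DMSO (screen); 0.195–50 uM final, 0.5% DMSO (CRC). Endpoint: nucleoli/cytoplasm red signal ratio, DHT as baseline, loss-of-signal antagonist mode.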
# [19] = target: mouse Estrogen Receptor alpha (Era), Esr1 (gene 13982) (UniProt P19785); assay: NVS_NR_mERa: NovaScreen (NVS) Nuclear Receptor Binding Assay for mouse Estrogen Receptor alpha (Era) (AID 2283378);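 further: hit means loss of bound radioligand signal relative to DMSO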
# Summary of the method: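 Extracted mouse Era incubated with tritiated or iodinated radioligand plus test chemical, 18 h. Bound fraction separated on filters, counted by scintillation. DMSO = negative control/baseline; duplicate single-point at 25 uM, then concentration-response follow-up.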
# [20] = target: Nucleoli Translocation, AR (gene 367) (UniProt P10275); assay: UPITT_HCI_U2OS_AR_TIF2_Nucleoli_Agonist: University of Pittsburgh U2OS Androgen Receptor-Transcriptional Intermediary Factor 2 (AR-TIF2) Agonism High Content Imaging Assay for Nucleoli Translocation (AID 2283998)
# Summary of the method: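 Readout is red (AR-RFP) fluorescence localized to nucleoli, measured by high-content imaging and analysed for increase relative to DMSO. Compound series spanned 0.195 to 50 uM final in 0.5% DMSO.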
structure (smiles),measurement,setting,value
CC1COC(Cn2cncn2)(c2ccc(Oc3ccc(Cl)cc3)cc2Cl)O1 (configuration not stated),AC50,[1],inconclusive: 50 µM
same,AC50,[2],active: 11.2 µM
same,AC50,[3],inconclusive: 85.8 µM
same,outcome,[4],inactive
same,AC50,[5],inconclusive: 0.0709 µM
same,AC50,[6],active: 20 µM
same,outcome,[7],inactive
same,outcome,[8],inactive
same,outcome,[9],inactive
COC(=O)NS(=O)(=O)c1ccc(N)cc1,AC50,[4],inconclusive: 52.3 µM
same,outcome,[10],inactive
same,AC50,[11],inconclusive: 1.08 µM
same,outcome,[5],inactive
same,outcome,[6],inactive
same,AC50,[12],inconclusive: 20 µM
same,outcome,[8],inactive
same,outcome,[9],inactive
same,outcome,[13],inactive
same,AC50,[14],inconclusive: 0.0724 µM
Cc1cccc(C)c1N,AC50,[10],inconclusive: 88.9 µM
CCCCC(CC)COC(=O)c1ccccc1C(=O)OCC(CC)CCCC (configuration not stated),outcome,[2],inactive
same,outcome,[4],inactive
same,AC50,[15],inconclusive: 20 µM
same,outcome,[11],inactive
same,outcome,[6],inactive
same,outcome,[12],inactive
same,outcome,[7],inactive
same,AC50,[8],inconclusive: 20 µM
same,outcome,[9],inactive
CCOP(=S)(OCC)SCSc1ccc(Cl)cc1,outcome,[16],inactive
COS(=O)(=O)OC,AC50,[17],inconclusive: 0.695 µM
same,outcome,[14],inactive
CN(CCCC(=O)c1cccnc1)N=O,AC50,[16],active: 0.00229 µM
same,AC50,[18],inconclusive: 50 µM
CN(CCCC(O)c1cccnc1)N=O (configuration not stated),AC50,[16],inconclusive: 0.102 µM
N#Cc1c[nH]cc1-c1cccc2c1OC(F)(F)O2,AC50,[10],inconclusive: 1.49 µM
same,AC50,[15],inconclusive: 7.13 µM
same,AC50,[12],inconclusive: 4.69 µM
same,AC50,[8],inconclusive: 15.8 µM
same,AC50,[13],inconclusive: 20 µM
CCOP(=S)(OCC)SCn1nnc2ccccc2c1=O,AC50,[19],inconclusive: 25 µM
Cc1ccccc1OP(=O)(Oc1ccccc1C)Oc1ccccc1C,AC50,[16],active: 45.1 µM
CCOC(=O)Nc1cccc(OC(=O)Nc2ccccc2)c1,AC50,[1],inconclusive: 50 µM
same,outcome,[19],inactive
Nc1ccc(-c2ccc(N)cc2)cc1,AC50,[19],inconclusive: 40.9 µM
same,AC50,[14],inconclusive: 37.4 µM
CCSC(C)CC1CC(=O)C(C(CC)=NOC/C=C/Cl)=C(O)C1 (configuration not stated),AC50,[20],inconclusive: 25 µM
same,AC50,[18],inconclusive: 25 µM
Clc1ccc(C(Cl)(Cl)Cl)cc1,outcome,[2],inactive
same,AC50,[4],inconclusive: 118 µM
O=[N+]([O-])c1ccc2c3c(cccc13)CC2,AC50,[19],inconclusive: 33.7 µM
Cc1ccc(N=CN(C)C=Nc2ccc(C)cc2C)c(C)c1,AC50,[1],inconclusive: 50 µM
same,AC50,[4],inconclusive: 72.9 µM
same,outcome,[5],inactive
same,outcome,[6],inactive
same,AC50,[13],inconclusive: 20 µM
O=C(CCl)CCl,outcome,[19],inactive
COCc1cnc(C2=NC(C)(C(C)C)C(=O)N2)c(C(=O)O)c1 (configuration not stated),AC50,[2],inconclusive: 15.4 µM
same,outcome,[3],inactive
same,AC50,[10],inconclusive: 13.8 µM
same,AC50,[11],inconclusive: 0.0004 µM
same,AC50,[5],inconclusive: 0.0004 µM
same,AC50,[7],inconclusive: 0.000394 µM
same,AC50,[8],inconclusive: 20 µM
same,outcome,[17],inactive
same,AC50,[14],inconclusive: 50 µM
same,AC50,[18],inconclusive: 50 µM

# Laid out differently: entries from further up.
structure (smiles) | measurement | setting | value
Nc1ccc(-c2ccc(N)cc2)cc1 | AC50 | [14] | inconclusive: 37.4 µM
CCSC(C)CC1CC(=O)C(C(CC)=NOC/C=C/Cl)=C(O)C1 (configuration not stated) | AC50 | [20] | inconclusive: 25 µM
same | AC50 | [18] | inconclusive: 25 µM
Clc1ccc(C(Cl)(Cl)Cl)cc1 | outcome | [2] | inactive
